Results: PMC11033462
Results are given in words; binding and its absence hold for the method and conditions named. In cells and extracts the contact can be indirect. Some entries that bind do so weakly or less than the wild type. Where a sequence is shown, tags or fusion partners need not be part of it.

How the values were obtained:
Experiment in all cases: co-IP; Myc-PLAA overexpressed in HEK293T, captured from cleared lysate on Myc-beads (4°C, 2 h), eluate probed by western blot (anti-VCP, anti-SAKS1, anti-MYC); p97 band divided by the Myc-PLAA band
[1] = target: PLAA p.Ile609Thr, Myc-tagged (human) (UniProt Q9Y263)
[2] = target: PLAA p.Leu795Met, Myc-tagged (human) (UniProt Q9Y263)
[3] = target: Phospholipase-A2-Activating-Protein (PLAA), wild type, Myc-tagged (human) (UniProt Q9Y263)

- binding [1]: binds
- binding [2]: binds
- binding [3]: binds
B1: UBXN1 (protein, UniProt Q04323 1-297)
chain: MAELTALESLIEMGFPRGRAEKALALTGNQGIEAAMDWLMEHEDDPDVDEPLETPLGHILGREPTSSEQGGLEGSGSAAGEGKPALSEEERQEQTKRMLELVAQKQREREEREEREALERERQRRRQGQELSAARQRLQEDEMRRAAEERRREKAEELAARQRVREKIERDKAERAKKYGGSVGSQPPPVAPEPGPVPSSPSQEPPTKREYDQCRIQVRLPDGTSLTQTFRAREQLAAVRLYVELHRGEELGGGQDPVQLLSGFPRRAFSEADMERPLQELGLVPSAVLIVAKKCPS
